Experimental data taken from the supplement of paper PMC4604168 (melanoma cell lines).
This is one part of the list. Repeats are few or missing, and single values can be far off.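 The apoptosis fraction was the count of cleaved-PARP antibody-stained nuclei relative to all DNA-stained nuclei, imaged in 1,536-well plates. Screening doses were set so most cells survived, and baseline and induced cleaved-PARP levels vary greatly across cell lines.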

Experiments:
Experiment in all cases: cleaved PARP positive nuclei fraction relative to DMSO control; melanoma cells; higher = more apoptosis
Conditions in all cases: library dose: low library concentration; 72 h
[1] = tested on: CBRC034 (line from a melanoma biopsy)
[2] = tested on: COLO792
[3] = tested on: COLO800
[4] = tested on: COLO829
[5] = tested on: G361
[6] = tested on: IPC-298
[7] = tested on: IST-MEL1
[8] = tested on: LB2518-MEL
[9] = tested on: LOXIMVI
[10] = tested on: MEL-HO

Row | SMILES | cleaved PARP positive nuclei fraction [1] [%] | cleaved PARP positive nuclei fraction [2] [%] | cleaved PARP positive nuclei fraction [3] [%] | cleaved PARP positive nuclei fraction [4] [%] | cleaved PARP positive nuclei fraction [5] [%] | cleaved PARP positive nuclei fraction [6] [%] | cleaved PARP positive nuclei fraction [7] [%] | cleaved PARP positive nuclei fraction [8] [%] | cleaved PARP positive nuclei fraction [9] [%] | cleaved PARP positive nuclei fraction [10] [%]
1 | N#CC[C@H](C1CCCC1)n1cc(-c2ncnc3[nH]ccc23)cn1 [ruxolitinib] + Cn1cc(C2=C(c3cn(C4CCN(Cc5ccccn5)CC4)c4ccccc34)C(=O)NC2=O)c2ccccc21 [Enzastaurin] (first compound 1 µM, partner dose 0.8 µM) | 66.3 | 79.5 | 75.3 | 79.7 | 155 | 56.4 | 112 | 107 | 170 | 41.3
2 | C[C@]12O[C@H](C[C@]1(O)CO)n1c3ccccc3c3c4c(c5c6ccccc6n2c5c31)CNC4=O [Lestaurtinib] + Nc1nc(F)nc2c1ncn2[C@@H]1O[C@H](CO)[C@@H](O)[C@@H]1O [fludarabine] (first compound 0.004 µM, partner dose 0.2 µM) | 183 | 91.5 | 142 | 87.5 | 229 | 90.7 | 82.7 | 111 | 102 | 141
3 | CNC(=O)c1cc(Oc2ccc(NC(=O)Nc3ccc(Cl)c(C(F)(F)F)c3)cc2)ccn1 [sorafenib] + C[As](C)SC[C@H](NC(=O)CC[C@H](N)C(=O)O)C(=O)NCC(=O)O [Darinaparsin] (first compound 0.4 µM, partner dose 0.4 µM) | 81.8 | 81.1 | 158 | 111 | 112 | 101 | 39.5 | 124 | 371 | 87.6
4 | Cn1cc(C2=C(c3cn(C4CCN(Cc5ccccn5)CC4)c4ccccc34)C(=O)NC2=O)c2ccccc21 [Enzastaurin] + C[C@]1(O)C[C@@H](c2nc(-c3ccc4ccc(-c5ccccc5)nc4c3)c3c(N)nccn32)C1 [OSI906] (first compound 0.8 µM, partner dose 0.4 µM) | 64.2 | 94.2 | 100 | 70.2 | 181 | 134 | 130 | 107 | 103 | 89.4
5 | Cc1cc(Nc2cc(N3CCN(C)CC3)nc(Sc3ccc(NC(=O)C4CC4)cc3)n2)n[nH]1 [Tozasertib] + C[As](C)SC[C@H](NC(=O)CC[C@H](N)C(=O)O)C(=O)NCC(=O)O [Darinaparsin] (first compound 0.006 µM, partner dose 0.4 µM) | 59.2 | 86.9 | 144 | 130 | 64.3 | 90.8 | 142 | 123 | 142 | 35.2
6 | Cn1cc(C2=C(c3cn(C4CCN(Cc5ccccn5)CC4)c4ccccc34)C(=O)NC2=O)c2ccccc21 [Enzastaurin] + COc1ccc(C2=N[C@@H](c3ccc(Cl)cc3)[C@@H](c3ccc(Cl)cc3)N2C(=O)N2CCNC(=O)C2)c(OC(C)C)c1 [Nutlin-3] (first compound 0.8 µM, partner dose 0.1 µM) | 69.3 | 87.8 | 68.8 | 140 | 113 | 102 | 57.6 | 56.9 | 47.7 | 188
7 | Cn1cc(C2=C(c3cn(C4CCN(Cc5ccccn5)CC4)c4ccccc34)C(=O)NC2=O)c2ccccc21 [Enzastaurin] + C[As](C)SC[C@H](NC(=O)CC[C@H](N)C(=O)O)C(=O)NCC(=O)O [Darinaparsin] (first compound 0.8 µM, partner dose 0.4 µM) | 70 | 72.5 | 65.9 | 115 | 109 | 125 | 108 | 204 | 94.7 | 180
8 | C[As](C)SC[C@H](NC(=O)CC[C@H](N)C(=O)O)C(=O)NCC(=O)O [Darinaparsin] + Cn1c(Nc2ccc(C(F)(F)F)cc2)nc2cc(Oc3ccnc(-c4ncc(C(F)(F)F)[nH]4)c3)ccc21 [CHIR265] (first compound 0.4 µM, partner dose 0.08 µM) | 179 | 223 | 23.7 | 67 | 228 | 198 | 132 | 410 | 70.1 | 39.2
9 | O=c1[nH]nc(Sc2ncc([N+](=O)[O-])s2)n1-c1ccc2c(c1)OCCO2 + N.N.[Cl][Pt][Cl] [cisplatin] (first compound 0.2 µM, partner dose 1.6 µM) | 95 | 29.1 | 34.2 | 85.3 | 89.9 | 52.7 | 58.6 | 43.3 | 119 | 39.3
10 | C[C@]12O[C@H](C[C@]1(O)CO)n1c3ccccc3c3c4c(c5c6ccccc6n2c5c31)CNC4=O [Lestaurtinib] + Nc1ccn([C@@H]2O[C@H](CO)[C@@H](O)C2(F)F)c(=O)n1 [gemcitabine] (first compound 0.004 µM, partner dose 0.0004 µM) | 330 | 72.7 | 97.3 | 96.6 | 93.8 | 95.9 | 73 | 236 | 80 | 63.6

Part of the list above, comma-delimited.
Row,SMILES,cleaved PARP positive nuclei fraction [1] [%],cleaved PARP positive nuclei fraction [2] [%],cleaved PARP positive nuclei fraction [3] [%],cleaved PARP positive nuclei fraction [4] [%],cleaved PARP positive nuclei fraction [5] [%],cleaved PARP positive nuclei fraction [6] [%],cleaved PARP positive nuclei fraction [7] [%],cleaved PARP positive nuclei fraction [8] [%],cleaved PARP positive nuclei fraction [9] [%],cleaved PARP positive nuclei fraction [10] [%]
6,"Cn1cc(C2=C(c3cn(C4CCN(Cc5ccccn5)CC4)c4ccccc34)C(=O)NC2=O)c2ccccc21 [Enzastaurin] + COc1ccc(C2=N[C@@H](c3ccc(Cl)cc3)[C@@H](c3ccc(Cl)cc3)N2C(=O)N2CCNC(=O)C2)c(OC(C)C)c1 [Nutlin-3] (first compound 0.8 µM, partner dose 0.1 µM)",69.3,87.8,68.8,140,113,102,57.6,56.9,47.7,188
7,"Cn1cc(C2=C(c3cn(C4CCN(Cc5ccccn5)CC4)c4ccccc34)C(=O)NC2=O)c2ccccc21 [Enzastaurin] + C[As](C)SC[C@H](NC(=O)CC[C@H](N)C(=O)O)C(=O)NCC(=O)O [Darinaparsin] (first compound 0.8 µM, partner dose 0.4 µM)",70,72.5,65.9,115,109,125,108,204,94.7,180
